Measured values as given in the supplement of paper PMC9015667.
Where a name gives a salt, the structure may show the parent alone. This is one part of the list. Most values come without repeats; read them as rough.

system: M249P (parental melanoma line); assay: reduction in cell viability relative to untreated/vehicle; higher = more growth inhibition; conditions: 200 nM; 72 h

Q: Which “reduction in cell viability” value does the source give for `COc1cc(/C=C/C(=O)O)ccc1O` [Fumalic acid] here?
A: The value was under 0%.

Q: `CS(=O)(=O)OCCCCOS(C)(=O)=O` [Busulfan] was tested. Which “reduction in cell viability” value did it give?
A: Its value is under 0%.

Q: With `NCCS(=O)(=O)O` [l-Taurine] as the molecule, how does the “reduction in cell viability” value read?
A: The value was under 0%.

Q: How did the “reduction in cell viability” value turn out when `CCN(CC)CCCCNc1nc2cc(Cl)c(Cl)cc2nc1-c1ccc(-c2cccs2)s1` was run?
A: Its value is under 0%.

Q: How did the “reduction in cell viability” value turn out when `CCc1cccc(CC)c1NC(=O)N1Cc2[nH]nc(NC(=O)c3ccc(N4CCN(C)CC4)cc3)c2C1` was run?
A: The value was 13.6%.

Q: `N#CC1(c2ccc(NC(=O)c3cccnc3NCc3ccncc3)cc2)CCCC1` [Apatinib] was tested. Which “reduction in cell viability” value did it give?
A: Its value is under 0%.

Q: For `O=C(CCCN1CCC(O)(c2ccc(Cl)cc2)CC1)c1ccc(F)cc1` [Haloperidol], which “reduction in cell viability” value is on record?
A: Its value is under 0%.

Q: How did the “reduction in cell viability” value turn out when `Cc1ccc(NC(=O)c2ccc(CN3CCN(C)CC3)cc2)cc1Nc1nc(-c2cccnc2)cs1` [Masitinib] was run?
A: The value was under 0%.

Q: How did the “reduction in cell viability” value turn out when `CCCN[C@H]1CCc2nc(N)sc2C1` [Pramipexole hydrochloride] was run?
A: Its value is under 0%.

Q: For `CCCCCCCCCCCCCCCCCCCCCCO` [Docosanol], which “reduction in cell viability” value is on record?
A: Its value is under 0%.

Q: Which “reduction in cell viability” value does the source give for `C[C@@H]1CN(Cc2ccc(F)cc2)[C@@H](C)CN1C(=O)c1cc2c(C(=O)C(=O)N(C)C)cn(C)c2cc1Cl` [Talmapimod] here?
A: The value was under 0%.

Q: For `CO[C@@H]1[C@H](N(C)C(=O)c2ccccc2)C[C@H]2O[C@]1(C)n1c3ccccc3c3c4c(c5c6ccccc6n2c5c31)C(=O)NC4=O` [Stauprimide], which “reduction in cell viability” value is on record?
A: The value was under 0%.

Q: Which “reduction in cell viability” value does the source give for `O=C(C[C@@H]1C/C=C/CCC(=O)O[C@H](c2ccccc2)CNC1=O)NCc1ccc(Cl)cc1` [Robotnikinin] here?
A: Its value is under 0%.

Q: Which “reduction in cell viability” value does the source give for `CC(C)(Oc1ccc(C2CC2(Cl)Cl)cc1)C(=O)O` (centres undefined) [Ciprofibrate] here?
A: The value was 5.29%.
